Taken from: PubChem BioAssay AID1259254 (NCATS, 2017)
The whole screen tested about 59,000 reagents; shown is a part drawn at random. In the full data, about 1,550 (2.6%) are marked active. 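G2 share is only a proxy for re-replication; each gene was hit by three separate siRNAs, and active genes were retested.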 Unmarked entries are inactive. The numbers tell different reagents against one gene apart. Not all columns of the deposit are shown. The record does not give: the amount of reagent.

- Test: 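Genome-wide screen for genes that prevent DNA re-replication in cancer cells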 (primary screen)
- Cell system: human HCT116 colorectal cancer cells
- Reagent: single siRNA against human genes
- Timing: 3 days
- Detection: 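Imaged Hoechst DNA stain sorts each cell into a cycle phase by DNA amount; per plate, G2 fraction set to 0% for non-targeting and 100% for GMNN siRNA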
- Scale: G2 robust z-score: higher = more G2 cells, more excess DNA replication
- Rule for the call: 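An siRNA counts as active if its G2 robust z-score lies at least 5 MADs above the screen median; here such calls match roughly 38% of GMNN control or more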

G2 robust z-score, by gene knocked down and reagent
CYB5R2: #1 0.6; #2 0.328; #3 0.345
PCDHGB4: #1 1.01; #2 -0.855; #3 0.427
RNF227: #1 1.02; #2 0.828; #3 0.332
GAPDHS: #1 1.03; #2 -1.5; #3 1.14
KBTBD13: #1 -0.56; #2 0.373; #3 -0.499
TBC1D19: #1 1.74; #2 0.315; #3 1.31
FAM216A: #1 -0.849; #2 -0.587; #3 2.31
EXOC4: #1 0.846; #2 0.126; #3 -0.333
LRMDA: #1 0.127; #2 0.458; #3 0.24
C5orf34: #1 0.0354; #2 -0.227; #3 0.181
GSG1L: #1 0; #2 0.379; #3 7.63 (active)
HTATSF1: #1 0.101; #2 -0.425; #3 -0.999

Sorted by “G2 robust z-score” (low to high): some entries from above
gene knocked down	reagent	G2 robust z-score
GAPDHS	2	-1.5
KBTBD13	1	-0.56
KBTBD13	3	-0.499
RNF227	3	0.332
KBTBD13	2	0.373
PCDHGB4	3	0.427
RNF227	2	0.828
RNF227	1	1.02
GAPDHS	1	1.03
GAPDHS	3	1.14
TBC1D19	1	1.74

Further records follow:
G2 robust z-score, by gene knocked down and reagent
SYPL2: #1 -0.0969; #2 0.0503; #3 -0.0385
CNN3: #1 -0.158; #2 6.17 (active); #3 -0.482
GTPBP8: #1 -0.704; #2 -0.166; #3 -0.945
PRPS2: #1 0.193; #2 -1.62; #3 -0.753
RERE: #1 4.27; #2 0.503; #3 -1.11
ZNF587: #1 -0.287; #2 -0.73; #3 -0.639
RNASEH2C: #1 -0.985; #2 -0.799; #3 -0.303
RIBC1: #1 -0.48; #2 -0.172; #3 -0.927
RHOG: #1 0.466; #2 -0.254; #3 0.464
SPART-AS1: #1 -0.0162; #2 2.12; #3 -0.278
UBA2: #1 1.47; #2 3.66; #3 -0.672
